In the test the target is E1A binding protein p300 (p300) (UniProt Q09472). In words: co-IP; Jurkat cells overexpressing CTCF and p300; RIPA lysis buffer; 2 ug anti-CTCF or anti-p300 antibody overnight at 4°C; protein A/G PLUS-agarose beads 2 h at 4°C; Western blotting with anti-CTCF and anti-p300.

The chains behind the UniProt entries cited, without tags or fusion partners. Where a name states a change or a piece, a line headed by the entry shows the natural chain unless it says otherwise.
UniProt Q09472: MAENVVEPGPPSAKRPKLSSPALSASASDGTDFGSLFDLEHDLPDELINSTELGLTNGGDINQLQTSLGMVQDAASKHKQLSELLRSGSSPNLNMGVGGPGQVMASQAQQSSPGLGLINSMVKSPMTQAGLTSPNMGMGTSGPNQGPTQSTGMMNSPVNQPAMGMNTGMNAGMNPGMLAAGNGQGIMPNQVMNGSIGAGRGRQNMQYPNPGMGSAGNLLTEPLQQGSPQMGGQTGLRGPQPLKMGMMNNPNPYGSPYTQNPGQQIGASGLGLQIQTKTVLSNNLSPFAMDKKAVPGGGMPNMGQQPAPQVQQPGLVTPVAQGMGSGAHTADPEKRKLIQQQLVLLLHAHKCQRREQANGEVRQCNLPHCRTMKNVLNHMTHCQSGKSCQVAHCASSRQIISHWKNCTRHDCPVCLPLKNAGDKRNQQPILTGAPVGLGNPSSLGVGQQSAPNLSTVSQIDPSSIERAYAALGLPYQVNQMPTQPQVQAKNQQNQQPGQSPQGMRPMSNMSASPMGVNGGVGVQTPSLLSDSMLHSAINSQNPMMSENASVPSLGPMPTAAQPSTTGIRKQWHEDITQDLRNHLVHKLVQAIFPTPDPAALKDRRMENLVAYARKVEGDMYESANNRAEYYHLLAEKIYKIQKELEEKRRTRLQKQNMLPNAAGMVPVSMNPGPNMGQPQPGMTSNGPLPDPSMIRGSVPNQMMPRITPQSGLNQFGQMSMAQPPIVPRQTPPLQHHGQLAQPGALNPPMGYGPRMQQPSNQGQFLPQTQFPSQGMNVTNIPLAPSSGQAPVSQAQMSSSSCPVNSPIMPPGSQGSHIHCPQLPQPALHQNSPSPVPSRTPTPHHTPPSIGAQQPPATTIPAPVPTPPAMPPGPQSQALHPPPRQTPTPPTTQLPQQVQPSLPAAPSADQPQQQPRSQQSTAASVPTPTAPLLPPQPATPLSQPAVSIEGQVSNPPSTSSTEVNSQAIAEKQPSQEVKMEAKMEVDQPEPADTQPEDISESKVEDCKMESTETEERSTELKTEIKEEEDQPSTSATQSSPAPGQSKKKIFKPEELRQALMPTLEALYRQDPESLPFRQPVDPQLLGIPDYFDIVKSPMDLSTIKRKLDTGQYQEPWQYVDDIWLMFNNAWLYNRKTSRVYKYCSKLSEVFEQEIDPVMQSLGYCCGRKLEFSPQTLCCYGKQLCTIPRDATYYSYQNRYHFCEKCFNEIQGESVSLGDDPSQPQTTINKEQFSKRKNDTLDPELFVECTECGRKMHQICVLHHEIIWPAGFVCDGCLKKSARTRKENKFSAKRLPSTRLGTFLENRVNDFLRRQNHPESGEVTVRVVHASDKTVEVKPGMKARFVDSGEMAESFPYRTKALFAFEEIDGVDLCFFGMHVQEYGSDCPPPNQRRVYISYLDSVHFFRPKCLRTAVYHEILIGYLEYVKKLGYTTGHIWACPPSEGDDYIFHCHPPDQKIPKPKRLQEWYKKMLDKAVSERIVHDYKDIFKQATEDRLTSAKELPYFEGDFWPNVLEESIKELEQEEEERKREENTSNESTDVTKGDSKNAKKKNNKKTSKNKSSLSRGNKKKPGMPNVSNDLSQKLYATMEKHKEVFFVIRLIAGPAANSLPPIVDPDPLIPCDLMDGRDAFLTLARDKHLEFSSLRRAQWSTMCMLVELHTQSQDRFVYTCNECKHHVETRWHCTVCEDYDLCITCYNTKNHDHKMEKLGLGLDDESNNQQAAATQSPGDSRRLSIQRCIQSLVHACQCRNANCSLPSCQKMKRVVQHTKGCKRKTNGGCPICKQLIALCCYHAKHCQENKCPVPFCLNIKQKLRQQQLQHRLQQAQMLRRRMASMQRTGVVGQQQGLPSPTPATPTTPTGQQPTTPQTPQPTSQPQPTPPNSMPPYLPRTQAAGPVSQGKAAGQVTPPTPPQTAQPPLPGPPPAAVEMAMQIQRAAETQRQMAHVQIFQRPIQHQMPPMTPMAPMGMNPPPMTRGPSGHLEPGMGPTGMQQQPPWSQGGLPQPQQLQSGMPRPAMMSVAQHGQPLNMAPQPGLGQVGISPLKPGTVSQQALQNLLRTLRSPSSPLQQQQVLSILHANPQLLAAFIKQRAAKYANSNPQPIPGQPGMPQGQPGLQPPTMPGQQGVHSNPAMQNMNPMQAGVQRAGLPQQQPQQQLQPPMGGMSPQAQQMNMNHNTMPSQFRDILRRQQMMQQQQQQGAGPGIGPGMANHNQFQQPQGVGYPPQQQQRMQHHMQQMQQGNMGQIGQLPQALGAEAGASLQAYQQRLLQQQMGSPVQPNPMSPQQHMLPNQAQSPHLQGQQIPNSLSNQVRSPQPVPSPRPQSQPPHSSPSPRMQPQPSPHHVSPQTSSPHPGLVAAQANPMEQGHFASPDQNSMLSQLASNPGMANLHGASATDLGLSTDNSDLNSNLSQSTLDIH

Results are given in words; binding and its absence hold for the method and conditions named. In cells and extracts the contact can be indirect. Some binding calls cover weakened binding; strength is not graded here.

B1: CCCTC-binding factor (CTCF) (protein, UniProt P49711 1-727)
chain: MEGDAVEAIVEESETFIKGKERKTYQRRREGGQEEDACHLPQNQTDGGEVVQDVNSSVQMVMMEQLDPTLLQMKTEVMEGTVAPEAEAAVDDTQIITLQVVNMEEQPINIGELQLVQVPVPVTVPVATTSVEELQGAYENEVSKEGLAESEPMICHTLPLPEGFQVVKVGANGEVETLEQGELPPQEDPSWQKDPDYQPPAKKTKKTKKSKLRYTEEGKDVDVSVYDFEEEQQEGLLSEVNAEKVVGNMKPPKPTKIKKKGVKKTFQCELCSYTCPRRSNLDRHMKSHTDERPHKCHLCGRAFRTVTLLRNHLNTHTGTRPHKCPDCDMAFVTSGELVRHRRYKHTHEKPFKCSMCDYASVEVSKLKRHIRSHTGERPFQCSLCSYASRDTYKLKRHMRTHSGEKPYECYICHARFTQSGTMKMHILQKHTENVAKFHCPHCDTVIARKSDLGVHLRKQHSYIEQGKKCRYCDAVFHERYALIQHQKSHKNEKRFKCDQCDYACRQERHMIMHKRTHTGEKPYACSHCDKTFRQKQLLDMHFKRYHDPNFVPAAFVCSKCGKTFTRRNTMARHADNCAGPDGVEGENGGETKKSKRGRKRKMRSKKEDSSDSENAEPDLDDNEDEEEPAVEIEPEPEPQPVTPAPPPAKKRRGRPPGRTNQPKQNQPTAIIQVEDQNTGAIENIIVEVKKEPDAEPAEGEEEEAQPAATDAPNGDLTPEMILSMMDR
For the molecule B1, the binding result is “binds”.
